These are yes or no findings as the source states them, for the method shown. Binding seen in cells or lysates may run through a third protein. Binding calls can cover weak binding; strength is not graded here. Sequences can lack the tags named with a protein.
Target: T1, HA-Cdc4 (cdc4Δ::HA-CDC4 strain YMB10217) (S. cerevisiae) (UniProt P07834)
T1 sequence: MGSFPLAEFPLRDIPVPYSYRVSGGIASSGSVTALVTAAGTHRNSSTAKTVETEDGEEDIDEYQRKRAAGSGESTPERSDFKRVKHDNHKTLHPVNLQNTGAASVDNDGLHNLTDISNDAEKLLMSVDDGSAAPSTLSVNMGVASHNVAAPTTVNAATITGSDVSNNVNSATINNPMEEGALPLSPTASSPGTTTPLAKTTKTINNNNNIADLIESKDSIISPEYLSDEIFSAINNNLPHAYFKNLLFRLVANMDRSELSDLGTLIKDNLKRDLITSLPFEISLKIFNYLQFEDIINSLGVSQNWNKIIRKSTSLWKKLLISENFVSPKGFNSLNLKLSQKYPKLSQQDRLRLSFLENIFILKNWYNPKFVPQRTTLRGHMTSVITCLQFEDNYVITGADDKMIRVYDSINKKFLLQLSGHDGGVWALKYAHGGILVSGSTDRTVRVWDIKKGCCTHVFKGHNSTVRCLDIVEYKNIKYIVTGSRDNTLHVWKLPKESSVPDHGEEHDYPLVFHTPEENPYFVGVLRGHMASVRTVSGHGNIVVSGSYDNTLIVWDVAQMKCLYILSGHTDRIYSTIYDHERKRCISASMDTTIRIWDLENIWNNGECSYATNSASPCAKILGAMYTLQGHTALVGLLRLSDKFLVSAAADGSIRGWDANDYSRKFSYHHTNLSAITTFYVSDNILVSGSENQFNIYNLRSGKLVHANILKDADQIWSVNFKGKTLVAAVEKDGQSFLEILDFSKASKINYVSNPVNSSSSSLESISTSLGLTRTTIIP
Assay: co-IP; IP with anti-HA agarose from whole cell extracts of yeast grown in selective glucose medium at 25°C; all tagged proteins from their native promoters; extraction buffer 40mM Hepes pH7.5, 350mM NaCl, 0.1% Tween, 10% glycerol; 4°C overnight; WT strains, also cdc4-1 (Met30 with Cse4 not affected) and met30-6 (Cdc4 with Cse4 greatly reduced, restored by plasmid-borne MET30 or met30ΔD)

Row | Substance | binding
1 | Myc-met30ΔD (Δ124–182 aa, pMB1830) (S. cerevisiae) (domain or fragment) | binds
2 | Myc-met30ΔF-box (Δ187–227 aa, pK680) (S. cerevisiae) (domain or fragment) | binds
